Experimental data from PMC4731865 (Nature chemical biology, 2015).

What was measured:
postfusion RSV F = settings: ITC, control
[1] = biological target: prefusion RSV F (DS-Cav1) (Human respiratory syncytial virus A, UniProt P03420, I379V/M447V/S155C/S190F/S290C/V207L); format: binding, RSV strain A2; settings: ITC, 25 °C, PBS 1% DMSO; mean ± s.d. (n = 2)

## O=c1n(Cc2nc3ccccc3n2CCCCO)c2cnccc2n1C1CC1 [BMS-433771]
Postfusion RSV F
  Binding to postfusion RSV F: no binding was detected
[1]
  Stoichiometry of fusion inhibitor to trimeric prefusion RSV F: 0.8 ± 0.21
